Measured values published in the supplement of paper PMC12823440, “Inhibitors supercharge kinase turnover through native proteolytic circuits” (Nature, 2025).
Counter-ions that a name gives are not always drawn. This is one part of the list. Hit calls seldom repeat between salt and free forms of one compound.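 Kinases were expressed as nanoluciferase fusions in K562 cells and luminescence was read every 4 h between 2 and 18 h as percent of control, DMSO set to 100% and a positive control to 0%. A time point counts as decreased when the signal drops significantly (2 sigma). The hit call is the authors' own, does not follow from the count of time points alone, and its rule is not shown.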

Amino acid sequences for entries named in this document (tags omitted). A change or cut given only in a name is not applied to a line headed by its entry.
UniProt O15530: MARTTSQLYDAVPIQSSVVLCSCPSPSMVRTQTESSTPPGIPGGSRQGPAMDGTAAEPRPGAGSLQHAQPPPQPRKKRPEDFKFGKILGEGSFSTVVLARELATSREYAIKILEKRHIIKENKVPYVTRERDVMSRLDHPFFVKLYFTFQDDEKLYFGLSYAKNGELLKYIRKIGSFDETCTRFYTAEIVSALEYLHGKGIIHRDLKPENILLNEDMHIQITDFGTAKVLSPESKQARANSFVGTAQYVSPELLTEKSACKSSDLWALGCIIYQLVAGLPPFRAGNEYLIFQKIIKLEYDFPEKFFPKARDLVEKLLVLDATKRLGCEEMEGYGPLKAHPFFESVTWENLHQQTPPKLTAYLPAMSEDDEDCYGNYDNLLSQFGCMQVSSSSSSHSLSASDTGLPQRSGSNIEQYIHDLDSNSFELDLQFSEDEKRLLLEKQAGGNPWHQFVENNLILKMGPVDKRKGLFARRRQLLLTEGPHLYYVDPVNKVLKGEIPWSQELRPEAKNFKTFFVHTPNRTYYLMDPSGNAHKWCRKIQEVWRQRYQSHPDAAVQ
UniProt P42356, whole entry, looked up: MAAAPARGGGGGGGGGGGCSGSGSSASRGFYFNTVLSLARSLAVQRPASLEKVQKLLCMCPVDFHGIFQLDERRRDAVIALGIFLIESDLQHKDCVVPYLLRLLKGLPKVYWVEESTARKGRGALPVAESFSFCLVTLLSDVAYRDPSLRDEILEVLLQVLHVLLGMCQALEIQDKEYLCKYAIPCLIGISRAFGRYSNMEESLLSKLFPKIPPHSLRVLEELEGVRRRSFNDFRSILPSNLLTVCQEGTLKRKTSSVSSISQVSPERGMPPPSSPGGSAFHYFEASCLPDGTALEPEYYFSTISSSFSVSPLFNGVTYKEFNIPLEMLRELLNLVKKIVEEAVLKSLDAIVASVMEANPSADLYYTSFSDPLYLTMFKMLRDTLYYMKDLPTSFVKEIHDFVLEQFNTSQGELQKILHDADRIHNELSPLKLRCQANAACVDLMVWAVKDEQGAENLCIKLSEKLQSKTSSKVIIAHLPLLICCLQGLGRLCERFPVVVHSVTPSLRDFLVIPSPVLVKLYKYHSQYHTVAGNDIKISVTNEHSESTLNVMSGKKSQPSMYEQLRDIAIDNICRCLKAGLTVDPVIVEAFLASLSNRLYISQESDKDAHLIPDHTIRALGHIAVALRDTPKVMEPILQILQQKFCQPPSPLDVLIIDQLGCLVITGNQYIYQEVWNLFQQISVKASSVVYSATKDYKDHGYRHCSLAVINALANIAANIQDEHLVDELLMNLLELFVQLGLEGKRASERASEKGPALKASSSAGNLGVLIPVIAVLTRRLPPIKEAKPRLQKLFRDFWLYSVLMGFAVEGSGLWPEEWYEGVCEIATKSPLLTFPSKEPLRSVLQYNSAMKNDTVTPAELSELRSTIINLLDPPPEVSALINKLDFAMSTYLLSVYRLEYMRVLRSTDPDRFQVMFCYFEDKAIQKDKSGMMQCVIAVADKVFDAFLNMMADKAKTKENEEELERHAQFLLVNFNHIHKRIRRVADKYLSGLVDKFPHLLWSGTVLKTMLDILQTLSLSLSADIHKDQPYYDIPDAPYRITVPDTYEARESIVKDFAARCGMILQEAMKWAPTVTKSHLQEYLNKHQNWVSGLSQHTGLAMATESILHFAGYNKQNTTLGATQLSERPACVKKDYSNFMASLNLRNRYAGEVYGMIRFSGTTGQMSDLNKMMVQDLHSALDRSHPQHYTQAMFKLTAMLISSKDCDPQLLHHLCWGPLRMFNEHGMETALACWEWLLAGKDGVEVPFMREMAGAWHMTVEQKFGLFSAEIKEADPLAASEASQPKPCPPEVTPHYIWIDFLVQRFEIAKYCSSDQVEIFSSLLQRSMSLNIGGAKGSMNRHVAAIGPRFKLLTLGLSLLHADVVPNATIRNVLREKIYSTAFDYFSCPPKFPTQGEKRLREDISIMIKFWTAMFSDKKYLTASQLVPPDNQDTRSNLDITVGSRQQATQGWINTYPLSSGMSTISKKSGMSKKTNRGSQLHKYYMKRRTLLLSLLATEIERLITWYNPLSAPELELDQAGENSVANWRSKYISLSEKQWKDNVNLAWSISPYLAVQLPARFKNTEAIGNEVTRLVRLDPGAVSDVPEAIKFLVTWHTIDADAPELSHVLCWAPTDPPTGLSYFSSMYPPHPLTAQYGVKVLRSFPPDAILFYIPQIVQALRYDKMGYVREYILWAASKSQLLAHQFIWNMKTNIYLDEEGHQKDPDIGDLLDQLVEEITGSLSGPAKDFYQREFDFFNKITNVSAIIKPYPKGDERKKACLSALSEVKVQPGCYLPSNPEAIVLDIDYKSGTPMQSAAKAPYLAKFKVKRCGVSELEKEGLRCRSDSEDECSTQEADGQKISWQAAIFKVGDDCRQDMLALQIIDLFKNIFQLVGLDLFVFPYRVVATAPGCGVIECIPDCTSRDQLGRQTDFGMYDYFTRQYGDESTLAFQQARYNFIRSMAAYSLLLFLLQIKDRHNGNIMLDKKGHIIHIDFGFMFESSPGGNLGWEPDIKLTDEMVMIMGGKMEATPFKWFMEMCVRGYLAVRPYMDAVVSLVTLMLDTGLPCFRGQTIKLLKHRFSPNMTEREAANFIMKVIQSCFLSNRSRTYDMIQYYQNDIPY
UniProt Q9UBF8: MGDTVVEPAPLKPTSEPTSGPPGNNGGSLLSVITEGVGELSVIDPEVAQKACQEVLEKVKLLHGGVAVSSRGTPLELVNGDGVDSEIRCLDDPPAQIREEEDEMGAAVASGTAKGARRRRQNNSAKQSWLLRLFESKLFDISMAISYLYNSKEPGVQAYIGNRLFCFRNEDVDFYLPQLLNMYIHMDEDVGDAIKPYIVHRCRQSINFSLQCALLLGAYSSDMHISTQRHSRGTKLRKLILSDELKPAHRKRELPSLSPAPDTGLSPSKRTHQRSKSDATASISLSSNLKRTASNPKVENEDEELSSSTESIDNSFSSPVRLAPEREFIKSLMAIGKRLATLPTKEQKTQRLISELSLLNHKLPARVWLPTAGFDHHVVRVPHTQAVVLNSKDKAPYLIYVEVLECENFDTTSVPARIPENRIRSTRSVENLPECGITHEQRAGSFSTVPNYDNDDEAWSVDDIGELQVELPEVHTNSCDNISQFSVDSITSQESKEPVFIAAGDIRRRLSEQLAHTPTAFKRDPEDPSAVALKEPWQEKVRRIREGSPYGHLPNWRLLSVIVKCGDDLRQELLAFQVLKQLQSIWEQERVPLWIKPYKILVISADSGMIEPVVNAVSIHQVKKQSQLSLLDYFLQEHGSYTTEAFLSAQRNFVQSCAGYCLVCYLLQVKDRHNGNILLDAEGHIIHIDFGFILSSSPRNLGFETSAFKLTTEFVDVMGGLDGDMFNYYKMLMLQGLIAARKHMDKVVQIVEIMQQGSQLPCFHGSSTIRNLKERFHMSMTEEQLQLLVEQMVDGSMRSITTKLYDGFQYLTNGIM
UniProt P53350, whole entry: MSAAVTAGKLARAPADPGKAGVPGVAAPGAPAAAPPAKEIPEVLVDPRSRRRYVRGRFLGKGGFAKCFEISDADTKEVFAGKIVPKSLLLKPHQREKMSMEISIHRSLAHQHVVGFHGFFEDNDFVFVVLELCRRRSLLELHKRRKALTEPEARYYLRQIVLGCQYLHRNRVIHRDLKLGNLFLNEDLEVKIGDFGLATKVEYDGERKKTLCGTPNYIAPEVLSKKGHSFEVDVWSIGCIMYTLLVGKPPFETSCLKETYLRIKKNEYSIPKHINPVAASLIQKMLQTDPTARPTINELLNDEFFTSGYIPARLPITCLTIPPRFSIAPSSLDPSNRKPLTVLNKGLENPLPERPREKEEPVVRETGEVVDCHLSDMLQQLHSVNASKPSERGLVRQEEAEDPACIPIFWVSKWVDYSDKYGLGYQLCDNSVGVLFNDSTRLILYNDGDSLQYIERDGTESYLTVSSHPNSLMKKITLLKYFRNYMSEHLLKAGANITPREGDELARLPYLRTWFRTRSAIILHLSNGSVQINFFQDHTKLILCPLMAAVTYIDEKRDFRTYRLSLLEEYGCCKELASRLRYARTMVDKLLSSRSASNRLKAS
UniProt Q13131: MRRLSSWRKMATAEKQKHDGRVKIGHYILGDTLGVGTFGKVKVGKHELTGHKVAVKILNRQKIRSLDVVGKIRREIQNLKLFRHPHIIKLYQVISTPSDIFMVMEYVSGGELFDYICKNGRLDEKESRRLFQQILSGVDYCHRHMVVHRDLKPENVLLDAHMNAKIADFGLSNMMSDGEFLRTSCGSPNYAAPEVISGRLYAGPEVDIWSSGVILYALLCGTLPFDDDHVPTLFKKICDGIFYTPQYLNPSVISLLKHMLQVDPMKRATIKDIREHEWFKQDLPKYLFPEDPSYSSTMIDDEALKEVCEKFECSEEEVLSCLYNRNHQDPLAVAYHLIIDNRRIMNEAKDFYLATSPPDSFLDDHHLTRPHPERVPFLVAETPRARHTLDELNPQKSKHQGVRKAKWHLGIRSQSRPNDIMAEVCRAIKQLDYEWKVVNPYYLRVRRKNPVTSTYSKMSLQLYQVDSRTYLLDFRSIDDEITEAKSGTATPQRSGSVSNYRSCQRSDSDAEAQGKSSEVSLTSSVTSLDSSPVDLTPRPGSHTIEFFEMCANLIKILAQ
UniProt Q05397, whole entry, looked up: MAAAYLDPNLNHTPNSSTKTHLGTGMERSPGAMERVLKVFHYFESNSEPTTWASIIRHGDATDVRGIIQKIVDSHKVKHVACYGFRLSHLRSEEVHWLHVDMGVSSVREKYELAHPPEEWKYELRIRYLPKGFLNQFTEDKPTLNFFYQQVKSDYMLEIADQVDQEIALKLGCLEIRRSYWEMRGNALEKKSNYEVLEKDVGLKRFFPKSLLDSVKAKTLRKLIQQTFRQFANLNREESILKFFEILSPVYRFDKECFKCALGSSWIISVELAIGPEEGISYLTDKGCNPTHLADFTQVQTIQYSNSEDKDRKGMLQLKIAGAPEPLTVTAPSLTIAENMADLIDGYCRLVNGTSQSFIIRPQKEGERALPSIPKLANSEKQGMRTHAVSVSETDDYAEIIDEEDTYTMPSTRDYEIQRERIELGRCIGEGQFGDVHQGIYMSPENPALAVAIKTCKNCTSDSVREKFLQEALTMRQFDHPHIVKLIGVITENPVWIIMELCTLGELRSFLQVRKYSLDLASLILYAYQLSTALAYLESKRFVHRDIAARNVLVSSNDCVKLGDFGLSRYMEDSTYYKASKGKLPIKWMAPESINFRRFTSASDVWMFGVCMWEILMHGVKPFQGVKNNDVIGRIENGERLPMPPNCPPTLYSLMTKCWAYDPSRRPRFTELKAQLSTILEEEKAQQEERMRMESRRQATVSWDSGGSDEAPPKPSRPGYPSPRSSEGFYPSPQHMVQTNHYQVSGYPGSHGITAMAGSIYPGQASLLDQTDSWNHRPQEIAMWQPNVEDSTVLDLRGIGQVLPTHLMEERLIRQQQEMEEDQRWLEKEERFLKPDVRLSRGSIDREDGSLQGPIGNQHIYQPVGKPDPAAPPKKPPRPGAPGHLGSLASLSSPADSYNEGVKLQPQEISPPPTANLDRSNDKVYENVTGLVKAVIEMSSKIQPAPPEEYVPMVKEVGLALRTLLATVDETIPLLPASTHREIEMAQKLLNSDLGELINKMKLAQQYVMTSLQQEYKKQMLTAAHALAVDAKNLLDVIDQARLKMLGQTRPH

Experiments:
Assay in all cases: kinase-Nluc reporter destabilization hit call (1 = scored as downregulated) (binary); higher = compound decreases kinase abundance
Conditions in all cases: K562; 2-18 h
PDPK1 = PDPK1 (UniProt O15530)
PIK4CA = PIK4CA (UniProt P42356)
PIK4CB = PIK4CB (UniProt Q9UBF8)
PLK1 = PLK1 (UniProt P53350)
PRKAA1 = PRKAA1 (UniProt Q13131)
PRKCA = PRKCA (UniProt P17252)
PTK2 = PTK2 (UniProt Q05397)
PTK2B = PTK2B (UniProt Q14289)
RAF1 = RAF1 (UniProt P04049)
[1] = target: RAF1_S257L (clone: RAF1_mut) (UniProt P04049)

Compound | kinase-Nluc reporter destabilization hit call (PDPK1) | kinase-Nluc reporter destabilization hit call (PIK4CA) | kinase-Nluc reporter destabilization hit call (PIK4CB) | kinase-Nluc reporter destabilization hit call (PLK1) | kinase-Nluc reporter destabilization hit call (PRKAA1) | kinase-Nluc reporter destabilization hit call (PRKCA) | kinase-Nluc reporter destabilization hit call (PTK2) | kinase-Nluc reporter destabilization hit call (PTK2B) | kinase-Nluc reporter destabilization hit call (RAF1) | kinase-Nluc reporter destabilization hit call [1]
CS(=O)(=O)c1ccc(-c2cnc(N)c(-c3ccc(C(F)(F)F)nc3)c2)cc1 (10 µM) | inactive: 0 | inactive: 0 | inactive: 0 | inactive: 0 | inactive: 0 | inactive: 0 | inactive: 0 | inactive: 0 | inactive: 0 | inactive: 0
Cn1cc(-c2cnc3cnn(S(=O)(=O)c4cnc5ccc(-c6cnn(C)c6)cn45)c3c2)cn1 [Glumetinib] (10 µM) | inactive: 0 | inactive: 0 | inactive: 0 | inactive: 0 | inactive: 0 | inactive: 0 | inactive: 0 | inactive: 0 | inactive: 0 | inactive: 0
COc1ccc(-c2c(C)nn3c(NCCN4CCOCC4)cc(C)nc23)cc1OC (10 µM) | inactive: 0 | inactive: 0 | inactive: 0 | inactive: 0 | inactive: 0 | inactive: 0 | inactive: 0 | inactive: 0 | inactive: 0 | inactive: 0
C=CC(=O)N1C(=O)CC(c2ccc(F)cc2)Sc2ccccc21 (stereo not drawn) [GSK-3β inhibitor 3] (10 µM) | inactive: 0 | inactive: 0 | inactive: 0 | inactive: 0 | inactive: 0 | inactive: 0 | inactive: 0 | inactive: 0 | inactive: 0 | inactive: 0
C[C@H](Nc1ncnc2nc[nH]c12)c1cc2cccc(Cl)c2c(=O)n1-c1ccccc1 [Duvelisib] (10 µM) | inactive: 0 | inactive: 0 | inactive: 0 | inactive: 0 | inactive: 0 | inactive: 0 | inactive: 0 | inactive: 0 | inactive: 0 | inactive: 0
C=C[C@@](C)(/C=C/c1ccc(O)cc1)CCC=C(C)C [Bakuchiol] (10 µM) | inactive: 0 | inactive: 0 | inactive: 0 | inactive: 0 | inactive: 0 | inactive: 0 | inactive: 0 | inactive: 0 | inactive: 0 | inactive: 0
COc1cc(-c2cn[nH]c2)ccc1C(=O)Nc1ccc2c(c1)CCNCC2 (10 µM) | inactive: 0 | inactive: 0 | inactive: 0 | inactive: 0 | inactive: 0 | inactive: 0 | inactive: 0 | inactive: 0 | inactive: 0 | inactive: 0
COc1cc(N(C)CCN(C)C)c(N)cc1Nc1nccc(-c2cn(C)c3ccccc23)n1 [Mutated EGFR-IN-1] (10 µM) | inactive: 0 | inactive: 0 | inactive: 0 | inactive: 0 | inactive: 0 | inactive: 0 | inactive: 0 | inactive: 0 | inactive: 0 | active: 1
C#Cc1cccc(Nc2ncnc3cc(OC)c(OCCCCCCC(=O)NO)cc23)c1 (2.5 µM) | inactive: 0 | inactive: 0 | inactive: 0 | inactive: 0 | inactive: 0 | inactive: 0 | inactive: 0 | inactive: 0 | inactive: 0 | inactive: 0
Cc1c(-c2ccc(C(N)=O)c3[nH]c4cc(C(C)(C)O)ccc4c23)cccc1-n1cnc2ccccc2c1=O (2.5 µM) | inactive: 0 | inactive: 0 | inactive: 0 | inactive: 0 | inactive: 0 | inactive: 0 | inactive: 0 | inactive: 0 | inactive: 0 | inactive: 0
COc1ncccc1-c1cnn2ccc(N3CCN(C(=O)OC(C)C)CC3)nc12 (10 µM) | inactive: 0 | inactive: 0 | inactive: 0 | inactive: 0 | inactive: 0 | inactive: 0 | inactive: 0 | inactive: 0 | inactive: 0 | inactive: 0
c1ccc(-c2nc(=NCCN3CCOCC3)sn2-c2ccccc2)cc1 [VP3.15 (dihydrobromide)] (10 µM) | inactive: 0 | inactive: 0 | inactive: 0 | inactive: 0 | inactive: 0 | inactive: 0 | inactive: 0 | inactive: 0 | inactive: 0 | inactive: 0
Cc1ccc(-c2csc3ncnc(SCCC(=O)O)c23)cc1 (10 µM) | inactive: 0 | inactive: 0 | inactive: 0 | inactive: 0 | inactive: 0 | inactive: 0 | inactive: 0 | inactive: 0 | inactive: 0 | inactive: 0
Cc1cnc(NC2CCOCC2)nc1-n1cnc(C(=O)N[C@H](CN)c2cc(F)cc(Cl)c2)c1 (10 µM) | inactive: 0 | inactive: 0 | inactive: 0 | inactive: 0 | inactive: 0 | inactive: 0 | inactive: 0 | inactive: 0 | inactive: 0 | inactive: 0
O=[N+]([O-])c1ccc(Nc2nc(N3CCOCC3)nc(N3CCOCC3)n2)cc1 (10 µM) | inactive: 0 | inactive: 0 | inactive: 0 | inactive: 0 | inactive: 0 | inactive: 0 | inactive: 0 | inactive: 0 | inactive: 0 | inactive: 0
Cc1ccc2c(Nc3cccc(Cl)c3F)nccc2c1NC(=O)c1csc2c(N)ncnc12 [Belvarafenib] (10 µM) | inactive: 0 | inactive: 0 | inactive: 0 | inactive: 0 | inactive: 0 | inactive: 0 | inactive: 0 | inactive: 0 | inactive: 0 | inactive: 0
O=c1cc(-c2cccc3c2Sc2ccccc2S3)oc(N2CCOCC2)c1 (10 µM) | inactive: 0 | inactive: 0 | inactive: 0 | inactive: 0 | inactive: 0 | inactive: 0 | inactive: 0 | inactive: 0 | inactive: 0 | inactive: 0
NC(=O)N1CCC(CC(=O)N2CCC([C@H]3c4ncc(Br)cc4CCc4cc(Cl)cc(Br)c43)CC2)CC1 [Lonafarnib] (2.5 µM) | inactive: 0 | inactive: 0 | inactive: 0 | inactive: 0 | inactive: 0 | inactive: 0 | inactive: 0 | inactive: 0 | inactive: 0 | inactive: 0
c1cc(NC2CCNCC2)nc(-c2cnc3ccccn23)c1 [IRAK inhibitor 1] (10 µM) | inactive: 0 | inactive: 0 | inactive: 0 | inactive: 0 | inactive: 0 | inactive: 0 | inactive: 0 | inactive: 0 | inactive: 0 | inactive: 0
CCN(CC)CCC(=O)N1N=C(c2c(-c3ccccc3)c3cc(Br)ccc3[nH]c2=O)CC1c1ccc(Br)cc1 (stereo not given) (2.5 µM) | inactive: 0 | inactive: 0 | inactive: 0 | inactive: 0 | inactive: 0 | inactive: 0 | inactive: 0 | inactive: 0 | inactive: 0 | inactive: 0
CC(C)CCNC(=O)c1ccc2c(c1)nc(Nc1n[nH]c3ccc(-c4ccccc4OC(F)(F)F)cc13)n2C1CCC(O)CC1 (stereo not drawn) [IRAK inhibitor 4 (trans)] (10 µM) | inactive: 0 | inactive: 0 | inactive: 0 | inactive: 0 | inactive: 0 | inactive: 0 | inactive: 0 | inactive: 0 | inactive: 0 | inactive: 0
Nc1nc(N)c2nc(-c3cccc(O)c3)cnc2n1 (10 µM) | inactive: 0 | inactive: 0 | inactive: 0 | inactive: 0 | inactive: 0 | inactive: 0 | inactive: 0 | inactive: 0 | inactive: 0 | inactive: 0
CC1(C)Cc2c(sc(NC(=S)NC(=O)c3ccccc3)c2C(=O)O)CO1 (10 µM) | inactive: 0 | inactive: 0 | inactive: 0 | inactive: 0 | inactive: 0 | inactive: 0 | inactive: 0 | inactive: 0 | inactive: 0 | inactive: 0
N[C@@H](CCC(=O)O)C(=O)N[C@@H](Cc1c[nH]c2ccccc12)C(=O)O [Oglufanide] (10 µM) | inactive: 0 | inactive: 0 | inactive: 0 | inactive: 0 | inactive: 0 | inactive: 0 | inactive: 0 | inactive: 0 | inactive: 0 | inactive: 0
Nc1nccc(Oc2ccc(NC(=O)c3c[nH]cc(-c4ccc(F)cc4)c3=O)cc2F)c1Cl (10 µM) | inactive: 0 | inactive: 0 | inactive: 0 | inactive: 0 | inactive: 0 | inactive: 0 | inactive: 0 | inactive: 0 | inactive: 0 | inactive: 0
C[C@@H]1CCNC(=O)c2cc3ccc(C(=O)Nc4nc5ccccc5n4CCCN(C)C)cc3n21 (10 µM) | inactive: 0 | inactive: 0 | inactive: 0 | inactive: 0 | inactive: 0 | inactive: 0 | inactive: 0 | inactive: 0 | inactive: 0 | inactive: 0
CNc1cc(Nc2cccn(-c3ccccn3)c2=O)nn2c(C(=O)N[C@@H]3C[C@@H]3F)cnc12 (2.5 µM) | inactive: 0 | inactive: 0 | inactive: 0 | inactive: 0 | inactive: 0 | inactive: 0 | inactive: 0 | active: 1 | inactive: 0 | inactive: 0

Three entries already listed, arranged by heavy-atom count, high to low:
Compound | kinase-Nluc reporter destabilization hit call (PDPK1) | kinase-Nluc reporter destabilization hit call (PIK4CA) | kinase-Nluc reporter destabilization hit call (PIK4CB) | kinase-Nluc reporter destabilization hit call (PLK1) | kinase-Nluc reporter destabilization hit call (PRKAA1) | kinase-Nluc reporter destabilization hit call (PRKCA) | kinase-Nluc reporter destabilization hit call (PTK2) | kinase-Nluc reporter destabilization hit call (PTK2B) | kinase-Nluc reporter destabilization hit call (RAF1) | kinase-Nluc reporter destabilization hit call [1]
CCN(CC)CCC(=O)N1N=C(c2c(-c3ccccc3)c3cc(Br)ccc3[nH]c2=O)CC1c1ccc(Br)cc1 (stereo not given) (2.5 µM) | inactive: 0 | inactive: 0 | inactive: 0 | inactive: 0 | inactive: 0 | inactive: 0 | inactive: 0 | inactive: 0 | inactive: 0 | inactive: 0
NC(=O)N1CCC(CC(=O)N2CCC([C@H]3c4ncc(Br)cc4CCc4cc(Cl)cc(Br)c43)CC2)CC1 [Lonafarnib] (2.5 µM) | inactive: 0 | inactive: 0 | inactive: 0 | inactive: 0 | inactive: 0 | inactive: 0 | inactive: 0 | inactive: 0 | inactive: 0 | inactive: 0
Cc1ccc2c(Nc3cccc(Cl)c3F)nccc2c1NC(=O)c1csc2c(N)ncnc12 [Belvarafenib] (10 µM) | inactive: 0 | inactive: 0 | inactive: 0 | inactive: 0 | inactive: 0 | inactive: 0 | inactive: 0 | inactive: 0 | inactive: 0 | inactive: 0
